These are yes or no findings as the source states them, for the method shown. In cells and extracts the contact can be indirect. Here binding means that the protein was enriched with, or labelled near, the bait; the list need not be complete. Sequences can lack the tags named with a protein.
molecular target: T1, Vipp1–GFP (Synechocystis Vipp1 tagged with green fluorescent protein at the C-terminus) (Synechocystis sp. PCC6803) (UniProt Q55707); assay: affinity purification with mass spectrometry; anti-GFP microbeads (μMACS column) on lysate of HL-exposed (600 μE m^−2 s^−1) Synechocystis vipp1–gfp cells broken without detergent; bound fraction on 10% SDS-PAGE, bands identified by MS/MS; compared with LL vipp1–gfp and HL wild-type cells
T1 sequence: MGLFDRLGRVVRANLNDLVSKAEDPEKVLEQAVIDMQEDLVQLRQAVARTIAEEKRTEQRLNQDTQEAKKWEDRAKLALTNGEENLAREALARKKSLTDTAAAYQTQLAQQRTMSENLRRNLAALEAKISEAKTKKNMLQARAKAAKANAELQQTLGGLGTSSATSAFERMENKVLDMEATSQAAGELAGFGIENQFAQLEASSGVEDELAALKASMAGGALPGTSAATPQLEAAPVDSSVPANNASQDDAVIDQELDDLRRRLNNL

binding, binds:
ATP synthase subunit beta (from UniProt P26527 1-483)
Aconitate hydratase 2
C-phycocyanin alpha chain (from UniProt Q54715 1-162)
C-phycocyanin beta chain (from UniProt Q54714 1-172)
Chaperone protein DnaK2 (from UniProt P22358 1-636)
Elongation factor Tu (from UniProt P74227 1-399)
Ferredoxin-NADP reductase (from UniProt Q55318 1-413)
Glycine-tRNA ligase beta subunit
Light-dependent protochlorophyllide reductase (from UniProt Q59987 1-322)
Orange carotenoid-binding protein (from UniProt P74102 1-317)
Photosystem I protein A1 (from UniProt P29254 1-751)
Phototaxis receptor PixJ1
Phycobiliprotein ApcE (from UniProt Q55544 1-896)
Phycobilisome linker polypeptide (cpcC1) (from UniProt P73203 1-291)
Phycobilisome linker polypeptide (cpcC2) (from UniProt P73204 1-273)
Polyphosphate kinase
Ribonuclease II
Ribulose bisphosphate carboxylase large chain (from UniProt P54205 1-470)

Source: PMC4297356
